{"source": "patent US9592197B2", "about": "“Dosage form containing diphenhydramine and another drug” (SOVEREIGN PHARMACEUTICALS, LLC, priority 2004, dated 2017)", "origin": "cited, not measured here", "data": [{"smiles": "CN(C)CCOC(c1ccccc1)c1ccccc1", "note": "[diphenydramine, diphenhydramine]", "values": [{"measurement": "period over which a single dose provides a therapeutically effective plasma concentration", "value": "4 to 6", "unit": "h"}]}]}
